Measurements: patent US20230078642A1
No constants are given. Whether binding was seen depends on the method and setting. In cells and extracts the contact can be indirect. Some entries that bind do so weakly or less than the wild type. Sequences can lack the tags named with a protein.

Protein sequences, listed by entry. Tags and fused reporters are not part of them.
UniProt Q9WTL8: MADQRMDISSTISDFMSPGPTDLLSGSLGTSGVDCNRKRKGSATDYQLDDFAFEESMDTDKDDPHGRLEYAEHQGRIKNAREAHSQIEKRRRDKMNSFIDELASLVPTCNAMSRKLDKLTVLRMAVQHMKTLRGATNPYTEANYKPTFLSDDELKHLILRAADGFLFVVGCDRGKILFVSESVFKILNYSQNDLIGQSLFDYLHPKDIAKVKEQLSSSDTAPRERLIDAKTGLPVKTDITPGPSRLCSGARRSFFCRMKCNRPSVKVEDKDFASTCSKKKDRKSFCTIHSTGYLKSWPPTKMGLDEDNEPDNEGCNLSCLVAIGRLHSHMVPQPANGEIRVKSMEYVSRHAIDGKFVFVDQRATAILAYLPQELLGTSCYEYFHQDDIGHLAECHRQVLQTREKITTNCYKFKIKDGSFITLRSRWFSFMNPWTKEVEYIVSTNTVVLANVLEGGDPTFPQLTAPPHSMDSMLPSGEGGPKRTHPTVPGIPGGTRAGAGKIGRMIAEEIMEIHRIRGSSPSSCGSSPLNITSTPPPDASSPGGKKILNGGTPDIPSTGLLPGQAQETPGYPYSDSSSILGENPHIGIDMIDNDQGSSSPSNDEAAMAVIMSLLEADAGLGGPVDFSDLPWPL

Tests used:
[1] = target: BMAL1 (tag-free, mBmal1) (mouse) (UniProt Q9WTL8); test: co-immunoprecipitation with anti-FLAG resin from HEK 293T lysate, western blot with anti-BMAL1; DMSO, 10 µM and 40 µM of the small molecule CLK8
[2] = target: BMAL1 (tag-free, mBmal1) (mouse) (UniProt Q9WTL8); test: co-immunoprecipitation with anti-FLAG resin from HEK 293T lysate, western blot with anti-BMAL1; with and without the small molecule CLK8
[3] = target: BMAL1 (tag-free, mBmal1) (mouse) (UniProt Q9WTL8); test: pull-down with biotinylated CLK8 (small molecule bait) on NeutrAvidin resin from whole cell lysate, western blot
[4] = target: BMAL1 (tag-free, mBmal1) (mouse) (UniProt Q9WTL8); test: pull-down with biotinylated CLK8 (small molecule bait) from HEK 293T lysate, western blot; wild type compared with CLOCK-F80A-K220A

B1: FLAG-tagged CLOCK (wild type) (protein, not shown: small tags and cut ends)
chain: MLFTVSCSKMSSIVDRDDSSIFDGLVEEDDKDKAKRVSRNKSEKKRRDQFNVLIKELGSMLPGNARKMDKSTVLQKSIDFLRKHKEITAQSDASEIRQDWKPTFLSNEEFTQLMLEALDGFFLAIMTDGSIIYVSESVTSLLEHLPSDLVDQSIFNFIPEGEHSEVYKILSTHLLESDSLTPEYLKSKNQLEFCCHMLRGTIDPKEPSTYEYVKFIGNFKSLNSVSSSAHNGFEGTIQRTHRPSYEDRVCFVATVRLATPQFIKEMCTVEEPNEEFTSRHSLEWKFLFLDHRAPPIIGYLPFEVLGTSGYDYYHVDDLENLAKCHEHLMQYGKGKSCYYRFLTKGQQWIWLQTHYYITYHQWNSRPEFIVCTHTVVSYAEVRAERRRELGIEESLPETAADKSQDSGSDNRINTVSLKEALERFDHSPTPSASSRSSRKSSHTAVSDPSSTPTKIPTDTSTPPRQHLPAHEKMVQRRSSFSSQSINSQSVGSSLTQPVMSQATNLPIPQGMSQFQFSAQLGAMQHLKDQLEQRTRMIEANIHRQQEELRKIQEQLQMVHGQGLQMFLQQSNPGLNFGSVQLSSGNSSNIQQLAPINMQGQVVPTNQIQSGMNTGHIGTTQHMIQQQTLQSTSTQSQQNVLSGHSQQTSLPSQTQSTLTAPLYNTMVISQPAAGSMVQIPSSMPQNSTQSAAVTTFTQDRQIRFSQGQQLVTKLVTAPVACGAVMVPSTMLMGQVVTAYPTFATQQQQSQTLSVTQQQQQQSSQEQQLTSVQQPSQAQLTQPPQQFLQTSRLLHGNPSTQLILSAAFPLQQSTFPQSHHQQHQSQQQQQLSRHRTDSLPDPSKVQPQ
Q: For B1, which binding [1] is on record?
A: binds

B2: FLAG-tagged CLOCK-F80A-K220A mutant (protein, not shown: small tags and cut ends)
chain: MLFTVSCSKMSSIVDRDDSSIFDGLVEEDDKDKAKRVSRNKSEKKRRDQFNVLIKELGSMLPGNARKMDKSTVLQKSIDALRKHKEITAQSDASEIRQDWKPTFLSNEEFTQLMLEALDGFFLAIMTDGSIIYVSESVTSLLEHLPSDLVDQSIFNFIPEGEHSEVYKILSTHLLESDSLTPEYLKSKNQLEFCCHMLRGTIDPKEPSTYEYVKFIGNFASLNSVSSSAHNGFEGTIQRTHRPSYEDRVCFVATVRLATPQFIKEMCTVEEPNEEFTSRHSLEWKFLFLDHRAPPIIGYLPFEVLGTSGYDYYHVDDLENLAKCHEHLMQYGKGKSCYYRFLTKGQQWIWLQTHYYITYHQWNSRPEFIVCTHTVVSYAEVRAERRRELGIEESLPETAADKSQDSGSDNRINTVSLKEALERFDHSPTPSASSRSSRKSSHTAVSDPSSTPTKIPTDTSTPPRQHLPAHEKMVQRRSSFSSQSINSQSVGSSLTQPVMSQATNLPIPQGMSQFQFSAQLGAMQHLKDQLEQRTRMIEANIHRQQEELRKIQEQLQMVHGQGLQMFLQQSNPGLNFGSVQLSSGNSSNIQQLAPINMQGQVVPTNQIQSGMNTGHIGTTQHMIQQQTLQSTSTQSQQNVLSGHSQQTSLPSQTQSTLTAPLYNTMVISQPAAGSMVQIPSSMPQNSTQSAAVTTFTQDRQIRFSQGQQLVTKLVTAPVACGAVMVPSTMLMGQVVTAYPTFATQQQQSQTLSVTQQQQQQSSQEQQLTSVQQPSQAQLTQPPQQFLQTSRLLHGNPSTQLILSAAFPLQQSTFPQSHHQQHQSQQQQQLSRHRTDSLPDPSKVQPQ
Q: For B2, which binding [2] is on record?
A: binds

B3: CLOCK (tag-free, hsClock, wild type) (protein)
chain: MLFTVSCSKMSSIVDRDDSSIFDGLVEEDDKDKAKRVSRNKSEKKRRDQFNVLIKELGSMLPGNARKMDKSTVLQKSIDFLRKHKEITAQSDASEIRQDWKPTFLSNEEFTQLMLEALDGFFLAIMTDGSIIYVSESVTSLLEHLPSDLVDQSIFNFIPEGEHSEVYKILSTHLLESDSLTPEYLKSKNQLEFCCHMLRGTIDPKEPSTYEYVKFIGNFKSLNSVSSSAHNGFEGTIQRTHRPSYEDRVCFVATVRLATPQFIKEMCTVEEPNEEFTSRHSLEWKFLFLDHRAPPIIGYLPFEVLGTSGYDYYHVDDLENLAKCHEHLMQYGKGKSCYYRFLTKGQQWIWLQTHYYITYHQWNSRPEFIVCTHTVVSYAEVRAERRRELGIEESLPETAADKSQDSGSDNRINTVSLKEALERFDHSPTPSASSRSSRKSSHTAVSDPSSTPTKIPTDTSTPPRQHLPAHEKMVQRRSSFSSQSINSQSVGSSLTQPVMSQATNLPIPQGMSQFQFSAQLGAMQHLKDQLEQRTRMIEANIHRQQEELRKIQEQLQMVHGQGLQMFLQQSNPGLNFGSVQLSSGNSSNIQQLAPINMQGQVVPTNQIQSGMNTGHIGTTQHMIQQQTLQSTSTQSQQNVLSGHSQQTSLPSQTQSTLTAPLYNTMVISQPAAGSMVQIPSSMPQNSTQSAAVTTFTQDRQIRFSQGQQLVTKLVTAPVACGAVMVPSTMLMGQVVTAYPTFATQQQQSQTLSVTQQQQQQSSQEQQLTSVQQPSQAQLTQPPQQFLQTSRLLHGNPSTQLILSAAFPLQQSTFPQSHHQQHQSQQQQQLSRHRTDSLPDPSKVQPQ
Q: Which results are given for B3?
A: binding [3]: binds; binding [4]: binds
